Source: the supplement of paper PMC10077471
Over roughly 1,900 compounds, “excess over highest single agent (ExcessHSA) synergy score, 6x6 matrix” has its median near -83; the lowest 2% begin near -370. Some of the results follow.

Tested on: NCI-H446
Experiment: excess over highest single agent (ExcessHSA) synergy score, 6x6 matrix; higher = less synergy (more negative = stronger synergy)
Details: 72 h; CellTiter-Glo viability

Row | Compound | excess over highest single agent
1 | Oc1cccc(-c2nc(N3CCOCC3)c3oc4ncccc4c3n2)c1 + Cc1sc2c(c1C)C(c1ccc(Cl)cc1)=N[C@@H](CC(=O)OC(C)(C)C)c1nnc(C)n1-2 [NCGC00250412-19] | -410
2 | Cc1ccc2nc(NC(=O)CSc3nc4c(c(=O)n3-c3ccccc3)SCC4)sc2c1 + Cc1sc2c(c1C)C(c1ccc(Cl)cc1)=N[C@@H](CC(=O)OC(C)(C)C)c1nnc(C)n1-2 [NCGC00250412-19] | 84.8
3 | C#C[C@]1(O)CC[C@H]2[C@@H]3CCC4=CC(=O)CC[C@@H]4[C@H]3CC[C@@]21CC + Cc1sc2c(c1C)C(c1ccc(Cl)cc1)=N[C@@H](CC(=O)OC(C)(C)C)c1nnc(C)n1-2 [NCGC00250412-19] | 85.1
4 | C=C1c2cccc(O)c2C(O)=C2C(=O)[C@@]3(O)C(O)=C(C(N)=O)C(=O)[C@@H](N(C)C)[C@@H]3[C@@H](O)[C@H]12 + Cc1sc2c(c1C)C(c1ccc(Cl)cc1)=N[C@@H](CC(=O)OC(C)(C)C)c1nnc(C)n1-2 [NCGC00250412-19] | 5.13
5 | Cc1cc2c(C(C)C)c(O)c(O)c(C=O)c2c(O)c1-c1c(C)cc2c(C(C)C)c(O)c(O)c(C=O)c2c1O + Cc1sc2c(c1C)C(c1ccc(Cl)cc1)=N[C@@H](CC(=O)OC(C)(C)C)c1nnc(C)n1-2 [NCGC00250412-19] | -203
6 | Cn1c(=O)c(Oc2ccc(F)cc2F)cc2cnc(NC3CCOCC3)nc21 + Cc1sc2c(c1C)C(c1ccc(Cl)cc1)=N[C@@H](CC(=O)OC(C)(C)C)c1nnc(C)n1-2 [NCGC00250412-19] | -79.8
7 | C[C@@H]1COC(Nc2ccc3ncnc(Nc4ccc(OCc5nccs5)c(Cl)c4)c3c2)=N1 + Cc1sc2c(c1C)C(c1ccc(Cl)cc1)=N[C@@H](CC(=O)OC(C)(C)C)c1nnc(C)n1-2 [NCGC00250412-19] | -154
8 | CCC(=O)O[C@]1(C(=O)CO)CC[C@H]2[C@@H]3CCC4=CC(=O)CC[C@]4(C)[C@H]3CC[C@@]21C + Cc1sc2c(c1C)C(c1ccc(Cl)cc1)=N[C@@H](CC(=O)OC(C)(C)C)c1nnc(C)n1-2 [NCGC00250412-19] | -194
9 | O=C(/C=C/c1c(C(=O)O)[nH]c2cc(Cl)cc(Cl)c12)Nc1ccccc1 + Cc1sc2c(c1C)C(c1ccc(Cl)cc1)=N[C@@H](CC(=O)OC(C)(C)C)c1nnc(C)n1-2 [NCGC00250412-19] | -30.8
10 | N[C@H]1CC[C@H](Nc2nc(Nc3ccc(C(=O)N4CCCCC4)cc3)c3ncn(-c4cccc(F)c4)c3n2)CC1 + Cc1sc2c(c1C)C(c1ccc(Cl)cc1)=N[C@@H](CC(=O)OC(C)(C)C)c1nnc(C)n1-2 [NCGC00250412-19] | -89.1
11 | C#CCN(C)[C@H](C)Cc1ccccc1 + Cc1sc2c(c1C)C(c1ccc(Cl)cc1)=N[C@@H](CC(=O)OC(C)(C)C)c1nnc(C)n1-2 [NCGC00250412-19] | -30.8
12 | N#Cc1c(NC(=O)c2cccc3ccccc23)sc2c1CCCC2 + Cc1sc2c(c1C)C(c1ccc(Cl)cc1)=N[C@@H](CC(=O)OC(C)(C)C)c1nnc(C)n1-2 [NCGC00250412-19] | -155
13 | c1ccc2c(CN3CCNCC3)cccc2c1 + Cc1sc2c(c1C)C(c1ccc(Cl)cc1)=N[C@@H](CC(=O)OC(C)(C)C)c1nnc(C)n1-2 [NCGC00250412-19] | 3.2
14 | Cn1ccc2cc3c(cc21)CCN3C(=O)Nc1cccnc1 + Cc1sc2c(c1C)C(c1ccc(Cl)cc1)=N[C@@H](CC(=O)OC(C)(C)C)c1nnc(C)n1-2 [NCGC00250412-19] | -55.2
15 | CC(C)(C)C(=O)Oc1ccc2c(c1)nc(NC(=O)c1cccc([N+](=O)[O-])c1)n2CCCO + Cc1sc2c(c1C)C(c1ccc(Cl)cc1)=N[C@@H](CC(=O)OC(C)(C)C)c1nnc(C)n1-2 [NCGC00250412-19] | 119
16 | COC(=O)Nc1nc2cc([S+]([O-])c3ccccc3)ccc2[nH]1 (centres undefined) + Cc1sc2c(c1C)C(c1ccc(Cl)cc1)=N[C@@H](CC(=O)OC(C)(C)C)c1nnc(C)n1-2 [NCGC00250412-19] | -257
17 | C[C@@H]1O[C@@H](O[C@@H]2C=C3CC[C@@H]4[C@H](CC[C@]5(C)[C@@H](c6ccc(=O)oc6)CC[C@]45O)[C@@]3(C)CC2)[C@H](O)[C@H](O)[C@H]1O + Cc1sc2c(c1C)C(c1ccc(Cl)cc1)=N[C@@H](CC(=O)OC(C)(C)C)c1nnc(C)n1-2 [NCGC00250412-19] | -176
18 | Nc1ccn([C@@H]2CS[C@H](CO)O2)c(=O)n1 + Cc1sc2c(c1C)C(c1ccc(Cl)cc1)=N[C@@H](CC(=O)OC(C)(C)C)c1nnc(C)n1-2 [NCGC00250412-19] | 96.2
19 | COc1ccccc1OCC(O)COC(N)=O (centres undefined) + Cc1sc2c(c1C)C(c1ccc(Cl)cc1)=N[C@@H](CC(=O)OC(C)(C)C)c1nnc(C)n1-2 [NCGC00250412-19] | -128
20 | OC[C@@H](O)[C@@H](O)[C@@H](O)CO + Cc1sc2c(c1C)C(c1ccc(Cl)cc1)=N[C@@H](CC(=O)OC(C)(C)C)c1nnc(C)n1-2 [NCGC00250412-19] | -189
21 | O=C(Nc1ccccc1)Nc1ccc(-c2ccc(C(=O)[C@@H]3CCC[C@H]3C(=O)O)cc2)cc1 + Cc1sc2c(c1C)C(c1ccc(Cl)cc1)=N[C@@H](CC(=O)OC(C)(C)C)c1nnc(C)n1-2 [NCGC00250412-19] | 195
22 | CN(C)C/C=C/C(=O)Nc1cc2c(Nc3ccc(F)c(Cl)c3)ncnc2cc1O[C@H]1CCOC1 + Cc1sc2c(c1C)C(c1ccc(Cl)cc1)=N[C@@H](CC(=O)OC(C)(C)C)c1nnc(C)n1-2 [NCGC00250412-19] | -361
23 | COc1ccccc1[C@H](c1cccc2ccccc12)[C@@](C)(C#N)C(=O)N1CCC(c2cccc(C(F)(F)F)c2)CC1 + Cc1sc2c(c1C)C(c1ccc(Cl)cc1)=N[C@@H](CC(=O)OC(C)(C)C)c1nnc(C)n1-2 [NCGC00250412-19] | -352
24 | O=C(O)CO.[NH2-].[NH2-].[Pt+2] + Cc1sc2c(c1C)C(c1ccc(Cl)cc1)=N[C@@H](CC(=O)OC(C)(C)C)c1nnc(C)n1-2 [NCGC00250412-19] | -152

Rewritten in markdown: part of the list above.

| Row | Compound | excess over highest single agent |
| --- | --- | --- |
| 19 | COc1ccccc1OCC(O)COC(N)=O (centres undefined) + Cc1sc2c(c1C)C(c1ccc(Cl)cc1)=N[C@@H](CC(=O)OC(C)(C)C)c1nnc(C)n1-2 [NCGC00250412-19] | -128 |
| 23 | COc1ccccc1[C@H](c1cccc2ccccc12)[C@@](C)(C#N)C(=O)N1CCC(c2cccc(C(F)(F)F)c2)CC1 + Cc1sc2c(c1C)C(c1ccc(Cl)cc1)=N[C@@H](CC(=O)OC(C)(C)C)c1nnc(C)n1-2 [NCGC00250412-19] | -352 |
